Measured data: PubChem BioAssay AID1259308 (NCATS, 2017)
Screen: 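Knock-downs that increase output of a recombinant reporter protein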 (primary screen). Cell system: human HEK293 embryonic kidney cells stably expressing firefly luciferase (HEK-CMV-Luc2-Hygro). Knock-down reagent: single siRNA against human genes, 0.8 pmol siRNA per well. Timing: 72 h. Detection: 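Luciferase light (ONE-Glo) measured on one replicate plate set and viability (CellTiter-Glo) on the other, scaled to a negative control siRNA, with robust z-scores and luciferase per cell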. Scale: total luciferase, z-score and total luciferase, % of control: higher = more reporter protein produced. Hit rule: 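An siRNA counts as active if its total luciferase robust z-score exceeds 3; genes with two or more such siRNAs out of three were retested with fresh siRNAs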. Calls: active = raised luciferase; inactive = no rise.
The deposit covers about 59,000 reagents; shown is a random part of them. Over the whole deposit, about 1,510 (2.6%) are marked active. 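Calls use total luciferase alone and ignore viability, so some active siRNAs may act by altering cell number.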 Reagents against one gene are numbered here. Not all columns of the deposit are shown.

Against RBBP5 (GeneID 5929) #1, the entry reads total luciferase, z-score -1.1; total luciferase, % of control 60.1; inactive.
For RBBP5 (GeneID 5929) #2, the values are total luciferase, z-score 0.451; total luciferase, % of control 90.9; inactive.
RBBP5 (GeneID 5929) #3 scored total luciferase, z-score -0.296; total luciferase, % of control 76; inactive.
With knock-down of SLC27A2 (GeneID 11001) #1 the results were total luciferase, z-score -0.158; total luciferase, % of control 78.7; inactive.
After knock-down of SLC27A2 (GeneID 11001) #2, the screen gave total luciferase, z-score 0.264; total luciferase, % of control 87.1; inactive.
Against SLC27A2 (GeneID 11001) #3, the values are total luciferase, z-score -0.435; total luciferase, % of control 73.2; inactive.
After knock-down of DGKH (GeneID 160851) #1 the results were total luciferase, z-score 0.912; total luciferase, % of control 100; inactive.
Against DGKH (GeneID 160851) #2 the deposit lists total luciferase, z-score 2.07; total luciferase, % of control 123; inactive.
With knock-down of DGKH (GeneID 160851) #3, the record shows total luciferase, z-score 0.465; total luciferase, % of control 91.1; inactive.
Silencing of AFAP1 (GeneID 60312) #1 resulted in: total luciferase, z-score 0.1; total luciferase, % of control 83.9; inactive.
After knock-down of AFAP1 (GeneID 60312) #2 the results were total luciferase, z-score -0.247; total luciferase, % of control 77; inactive.
AFAP1 (GeneID 60312) #3 scored total luciferase, z-score -0.804; total luciferase, % of control 65.9; inactive.
For ZBTB8OSP1 (GeneID 729566) #1, the values are total luciferase, z-score -0.528; total luciferase, % of control 71.4; inactive.
ZBTB8OSP1 (GeneID 729566) #2 showed total luciferase, z-score 0.213; total luciferase, % of control 86.1; inactive.
Depletion of ZBTB8OSP1 (GeneID 729566) #3 gave: total luciferase, z-score -1.67; total luciferase, % of control 48.8; inactive.
H4C3 (GeneID 8364) #1 showed total luciferase, z-score 0.237; total luciferase, % of control 86.6; inactive.
After knock-down of H4C3 (GeneID 8364) #2 the results were total luciferase, z-score 0.999; total luciferase, % of control 102; inactive.
Against H4C3 (GeneID 8364) #3 the deposit lists total luciferase, z-score 0.798; total luciferase, % of control 97.8; inactive.

Part of the list above in another layout:
{"gene": "SLC27A2 (GeneID 11001)", "reagent no.": 3, "total luciferase, z-score": -0.435, "total luciferase, % of control": 73.2, "call": "inactive"}
{"gene": "DGKH (GeneID 160851)", "reagent no.": 1, "total luciferase, z-score": 0.912, "total luciferase, % of control": 100, "call": "inactive"}
{"gene": "DGKH (GeneID 160851)", "reagent no.": 2, "total luciferase, z-score": 2.07, "total luciferase, % of control": 123, "call": "inactive"}
{"gene": "DGKH (GeneID 160851)", "reagent no.": 3, "total luciferase, z-score": 0.465, "total luciferase, % of control": 91.1, "call": "inactive"}
{"gene": "AFAP1 (GeneID 60312)", "reagent no.": 1, "total luciferase, z-score": 0.1, "total luciferase, % of control": 83.9, "call": "inactive"}
{"gene": "AFAP1 (GeneID 60312)", "reagent no.": 2, "total luciferase, z-score": -0.247, "total luciferase, % of control": 77, "call": "inactive"}

Next reagents:
STRADA (GeneID 92335) #1 gave total luciferase, z-score 2.6; total luciferase, % of control 134; inactive.
Depletion of STRADA (GeneID 92335) #2 gave: total luciferase, z-score -0.594; total luciferase, % of control 70.1; inactive.
STRADA (GeneID 92335) #3 showed total luciferase, z-score 1.32; total luciferase, % of control 108; inactive.
Depletion of IFT70B (GeneID 150737) #1 gave: total luciferase, z-score 0.298; total luciferase, % of control 87.8; inactive.
Depletion of IFT70B (GeneID 150737) #2 resulted in: total luciferase, z-score 0.706; total luciferase, % of control 95.9; inactive.
IFT70B (GeneID 150737) #3 gave total luciferase, z-score 0.68; total luciferase, % of control 95.4; inactive.
With knock-down of CREB3L3 (GeneID 84699) #1, the record shows total luciferase, z-score 1.15; total luciferase, % of control 105; inactive.
Depletion of CREB3L3 (GeneID 84699) #2 resulted in: total luciferase, z-score -0.236; total luciferase, % of control 77.2; inactive.
CREB3L3 (GeneID 84699) #3 gave total luciferase, z-score 1.89; total luciferase, % of control 119; inactive.
Depletion of CHST6 (GeneID 4166) #1 gave: total luciferase, z-score 0.0187; total luciferase, % of control 82.3; inactive.
With knock-down of CHST6 (GeneID 4166) #2, the record shows total luciferase, z-score 2.7; total luciferase, % of control 136; inactive.
After knock-down of CHST6 (GeneID 4166) #3, the screen gave total luciferase, z-score 1.33; total luciferase, % of control 108; inactive.
PRDM2 (GeneID 7799) #1 gave total luciferase, z-score 0.393; total luciferase, % of control 89.7; inactive.
PRDM2 (GeneID 7799) #2 showed total luciferase, z-score 1.96; total luciferase, % of control 121; inactive.
Knock-down of PRDM2 (GeneID 7799) #3 gave: total luciferase, z-score -0.44; total luciferase, % of control 73.1; inactive.
CMTM1 (GeneID 113540) #1 scored total luciferase, z-score -0.301; total luciferase, % of control 75.9; inactive.
CMTM1 (GeneID 113540) #2 gave total luciferase, z-score 0.486; total luciferase, % of control 91.5; inactive.
For CMTM1 (GeneID 113540) #3, the values are total luciferase, z-score -1.18; total luciferase, % of control 58.4; inactive.
Against TRUB1 (GeneID 142940) #1, the entry reads total luciferase, z-score -0.299; total luciferase, % of control 75.9; inactive.
Depletion of TRUB1 (GeneID 142940) #2 resulted in: total luciferase, z-score 0.494; total luciferase, % of control 91.7; inactive.
Against TRUB1 (GeneID 142940) #3, the values are total luciferase, z-score 1.17; total luciferase, % of control 105; inactive.
Against GID8 (GeneID 54994) #1, the entry reads total luciferase, z-score 0.408; total luciferase, % of control 90; inactive.
Against GID8 (GeneID 54994) #2, the values are total luciferase, z-score 2.18; total luciferase, % of control 125; inactive.
GID8 (GeneID 54994) #3 showed total luciferase, z-score -0.192; total luciferase, % of control 78.1; inactive.
